# Screening data, single-dose tests

By UniProt entry, the sequences of proteins in these tests, tags left out. Residues count along the entry.
UniProt P9WNZ1, whole entry: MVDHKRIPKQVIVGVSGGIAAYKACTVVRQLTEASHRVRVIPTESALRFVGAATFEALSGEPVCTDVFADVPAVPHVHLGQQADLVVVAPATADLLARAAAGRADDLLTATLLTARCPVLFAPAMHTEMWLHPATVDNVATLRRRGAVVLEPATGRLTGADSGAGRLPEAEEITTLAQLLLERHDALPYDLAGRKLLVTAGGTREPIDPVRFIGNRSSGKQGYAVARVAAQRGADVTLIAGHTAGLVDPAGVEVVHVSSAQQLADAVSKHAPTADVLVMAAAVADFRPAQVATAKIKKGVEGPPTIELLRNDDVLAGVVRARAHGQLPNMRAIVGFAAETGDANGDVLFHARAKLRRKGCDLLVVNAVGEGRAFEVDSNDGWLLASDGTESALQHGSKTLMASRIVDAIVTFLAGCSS
UniProt Q8IDJ8, 1-583: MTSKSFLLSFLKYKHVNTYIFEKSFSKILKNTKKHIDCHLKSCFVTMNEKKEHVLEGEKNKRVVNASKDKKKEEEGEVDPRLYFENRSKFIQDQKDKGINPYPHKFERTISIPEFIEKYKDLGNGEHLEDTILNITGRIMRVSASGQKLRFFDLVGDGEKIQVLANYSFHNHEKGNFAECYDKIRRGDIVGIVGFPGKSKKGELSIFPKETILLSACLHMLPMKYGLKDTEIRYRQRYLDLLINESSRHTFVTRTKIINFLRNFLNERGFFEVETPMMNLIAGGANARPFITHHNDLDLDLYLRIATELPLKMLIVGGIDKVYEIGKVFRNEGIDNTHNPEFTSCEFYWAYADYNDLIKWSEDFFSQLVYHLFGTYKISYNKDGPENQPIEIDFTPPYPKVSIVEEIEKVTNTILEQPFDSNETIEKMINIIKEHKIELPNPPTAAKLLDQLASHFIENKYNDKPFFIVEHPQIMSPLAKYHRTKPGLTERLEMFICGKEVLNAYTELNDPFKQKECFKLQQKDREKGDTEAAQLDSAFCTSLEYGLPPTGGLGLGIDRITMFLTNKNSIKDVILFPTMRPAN
UniProt A4I591, 1-473: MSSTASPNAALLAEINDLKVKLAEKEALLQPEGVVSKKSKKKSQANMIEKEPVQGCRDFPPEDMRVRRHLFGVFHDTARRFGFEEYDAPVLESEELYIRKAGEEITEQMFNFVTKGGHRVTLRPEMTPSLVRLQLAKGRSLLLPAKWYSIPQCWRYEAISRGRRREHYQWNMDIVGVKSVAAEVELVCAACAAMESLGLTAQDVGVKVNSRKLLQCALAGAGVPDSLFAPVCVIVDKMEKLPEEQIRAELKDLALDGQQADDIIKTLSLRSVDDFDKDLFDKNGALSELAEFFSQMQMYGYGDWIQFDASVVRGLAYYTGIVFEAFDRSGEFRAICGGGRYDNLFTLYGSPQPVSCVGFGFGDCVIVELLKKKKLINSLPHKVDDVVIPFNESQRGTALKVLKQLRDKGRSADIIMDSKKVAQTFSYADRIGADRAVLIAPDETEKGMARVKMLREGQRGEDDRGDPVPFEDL

CoaBC: 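Coenzyme A biosynthesis protein CoaBC, Mycobacterium tuberculosis (UniProt P9WNZ1). Enzyme assay of CoaBC with a phosphate dye (Biomol Green) read at 650 nm. Tested at 30 µM. Direction is inferred from only a few compounds that gave an IC50; most scored high, so higher reads as stronger inhibition. Most strong results did not repeat in a second test. Of about 67,000 compounds tested this way, about 40 (0.06%) reached 50% or more in at least one test.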
PfKRS1: 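Enzyme assay of the cytosolic lysyl-tRNA synthetase in 384-well plates, read by luminescence. Target: Lysine-tRNA ligase, Plasmodium falciparum 3D7 (UniProt Q8IDJ8). Tested at 30 µM. Direction is inferred from only a few compounds that gave an IC50; most scored high, so higher reads as stronger inhibition. About 69,000 compounds were tested under these conditions; 0.071% (about 49) showed 50% or more at least once.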
LiHisRS: 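Enzyme assay of histidyl-tRNA synthetase; the read-out is not stated. Target: Histidine-tRNA ligase, Leishmania infantum (UniProt A4I591). Tested at 30 µM. Direction is inferred from retests: higher values go with stronger inhibition. The assay is labelled LdHisRS but filed under L. infantum. Size under these conditions: about 69,000 compounds, about 410 of them at 50% or above in at least one test.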

Values are the deposited “Percent Effect”, in %. How 0% and 100% were set is not recorded. Most values in the screen are low, and negative values occur. Compounds were drawn at random from those tested, without regard to their results.

{"compound": "COc1ccc(F)cc1S(=O)(=O)N1CCC(OC)CC1", "CoaBC": 0.2114, "PfKRS1": 4.516, "LiHisRS": 15.65}
{"compound": "O=S(=O)(CCN1CCOC(Cn2cncn2)C1)c1ccccc1", "stereo": "configuration not stated", "CoaBC": 12.33, "PfKRS1": -1.856, "LiHisRS": 5.66}
{"compound": "Cc1noc([C@@]23CCO[C@@H]2CCN(C(=O)c2cc(C)on2)C3)n1", "CoaBC": 4.516, "PfKRS1": 3.005, "LiHisRS": 22.22}
{"compound": "c1cncc(O[C@H]2CC[C@H]3[C@H]2OCCN3C2CCCC2)c1", "CoaBC": -10.48, "PfKRS1": 4.427, "LiHisRS": 11.29}
{"compound": "Cc1cc(C(=O)N2CC[C@@]3(O)CCN(C(=O)N4CCCC4)C[C@H]3C2)no1", "CoaBC": 2.39, "PfKRS1": 1.137, "LiHisRS": 23.01}
{"compound": "C/N=C1/c2cc3cc(OC)ccc3n2CCN1Cc1ccccc1", "CoaBC": 12.52, "PfKRS1": 5.547, "LiHisRS": 34.78}
{"compound": "Cc1ccc(CN2CC(C(=O)NC(C)C)C3(CCOCC3)C2)s1", "stereo": "configuration not stated", "CoaBC": 4.731, "PfKRS1": 1.972, "LiHisRS": 12.33}
{"compound": "CC(C)C[C@H](N)c1nnc(SCC(=O)Nc2ccc(Br)cc2)o1", "CoaBC": 2.278, "PfKRS1": 0.2798, "LiHisRS": 5.263}
{"compound": "O=C(CCc1ccncc1)NCCOc1ncc(Cl)cc1Cl", "CoaBC": -2.445, "PfKRS1": 4.177, "LiHisRS": 14.52}
{"compound": "CCn1nccc1CNc1nc(N)nc2c1nc(C)n2C", "CoaBC": 13.2, "PfKRS1": 4.873, "LiHisRS": 26.55}
{"compound": "Cn1cc(CN2CC[C@@H]3[C@@H](CO[C@H]3CNC(=O)c3ccco3)C2)cn1", "CoaBC": 9.532, "PfKRS1": -15.61, "LiHisRS": 15.96}
{"compound": "CCN(CC1CCOC1)C(=O)c1ccccc1S(=O)(=O)CC", "stereo": "configuration not stated", "CoaBC": 2.171, "PfKRS1": -1.371, "LiHisRS": 9.821}
{"compound": "O=C(CCCn1nnc(-c2ccc(F)cc2)n1)N1CCOCC(CO)C1", "stereo": "configuration not stated", "PfKRS1": 5.193, "LiHisRS": -4.167}
{"compound": "O=C1COC2(CCN(Cc3nccs3)CC2)CN1CC1CC1", "CoaBC": 11.58, "PfKRS1": -0.9672, "LiHisRS": 15.04}
{"compound": "Cc1cnn(CCNC(C)c2nnc(-c3ccccc3)o2)c1", "stereo": "configuration not stated", "CoaBC": 2.564, "PfKRS1": 0.4961, "LiHisRS": -1.709}
{"compound": "CC(C)c1nc(CCN(C)C(=O)C2COc3ccccc3C2)no1", "stereo": "configuration not stated", "CoaBC": 1.568, "PfKRS1": 3.885, "LiHisRS": 7.2}
{"compound": "Cn1nc(CNC(=O)C2CCCC2)cc1C1CC1", "CoaBC": 1.901, "PfKRS1": 0.9272, "LiHisRS": 10.68}
{"compound": "N#Cc1ccc2c(c1)CN(C(=O)C1CC=CC1)C2c1cnco1", "stereo": "configuration not stated", "PfKRS1": 12.65, "LiHisRS": 20.69}
{"compound": "Cn1ccnc1C(O)c1ccccc1N1CCN(Cc2cccs2)CC1", "stereo": "configuration not stated", "CoaBC": -16.28, "PfKRS1": 2.491, "LiHisRS": 12.68}
{"compound": "CC(NCc1ccc(Cl)o1)c1nnc2n1CCCC2", "stereo": "configuration not stated", "CoaBC": 9.317, "PfKRS1": -1.024, "LiHisRS": 11.54}
{"compound": "CN(C)CCCNCCC(c1ccccc1)C1CCOC(C)(C)C1", "stereo": "configuration not stated", "CoaBC": 0, "PfKRS1": 4.547, "LiHisRS": 12.5}
{"compound": "Cc1cnn(CC2CN(CC(=O)NCc3ccco3)CCO2)c1", "stereo": "configuration not stated", "CoaBC": 3.944, "PfKRS1": 2.227, "LiHisRS": 7.826}
{"compound": "Cn1cc(CCNC(=O)NCc2ccc3c(c2)OCCO3)cn1", "CoaBC": 1.121, "PfKRS1": -0.3727, "LiHisRS": 18.35}
{"compound": "COc1ccc(C(CN2CCN(C)CC2)Nc2ncccn2)cc1", "stereo": "configuration not stated", "CoaBC": -6.452, "PfKRS1": 7.018, "LiHisRS": 25}
{"compound": "COc1ncccc1NC(=O)NC(C)c1nncn1C", "stereo": "configuration not stated", "CoaBC": -0.1164, "PfKRS1": 0.03529, "LiHisRS": 14.91}
{"compound": "Cc1cc(C(=O)NC2CCN(CC(N)=O)CC2)nn1C(C)(C)C", "CoaBC": 4.843, "PfKRS1": 2.371, "LiHisRS": 15.22}
{"compound": "Cn1ncc2c1CCCC2NCc1ccc(Cl)s1", "stereo": "configuration not stated", "CoaBC": 4.103, "PfKRS1": 5.248, "LiHisRS": 10.67}
{"compound": "CC(C)N1CCCC2(CCN(c3nccc(C(F)(F)F)n3)C2)C1=O", "stereo": "configuration not stated", "CoaBC": -1.653, "PfKRS1": -0.7805, "LiHisRS": 5.333}

The last 3 entries again:

{"compound": "Cc1cc(C(=O)NC2CCN(CC(N)=O)CC2)nn1C(C)(C)C", "CoaBC": 4.843, "PfKRS1": 2.371, "LiHisRS": 15.22}
{"compound": "Cn1ncc2c1CCCC2NCc1ccc(Cl)s1", "stereo": "configuration not stated", "CoaBC": 4.103, "PfKRS1": 5.248, "LiHisRS": 10.67}
{"compound": "CC(C)N1CCCC2(CCN(c3nccc(C(F)(F)F)n3)C2)C1=O", "stereo": "configuration not stated", "CoaBC": -1.653, "PfKRS1": -0.7805, "LiHisRS": 5.333}

Measurements from “University of Dundee, Small-Polar-MMV Screening Library” (2021), ChEMBL document CHEMBL3988442.